Data reported in the supplement of paper PMC12819154, “High-throughput peptide-centric local stability assay extends protein–ligand identification to membrane proteins, tissues and bacteria” (Nature Structural & Molecular Biology, 2025).
The other results are listed elsewhere or left out. Small differences around the control level are noise.

Protein sequences, listed by entry. Tags and fused reporters are not part of them. Lines headed by an entry give the natural chain unless they say otherwise; changes in a name come on top.
UniProt Q70EK8: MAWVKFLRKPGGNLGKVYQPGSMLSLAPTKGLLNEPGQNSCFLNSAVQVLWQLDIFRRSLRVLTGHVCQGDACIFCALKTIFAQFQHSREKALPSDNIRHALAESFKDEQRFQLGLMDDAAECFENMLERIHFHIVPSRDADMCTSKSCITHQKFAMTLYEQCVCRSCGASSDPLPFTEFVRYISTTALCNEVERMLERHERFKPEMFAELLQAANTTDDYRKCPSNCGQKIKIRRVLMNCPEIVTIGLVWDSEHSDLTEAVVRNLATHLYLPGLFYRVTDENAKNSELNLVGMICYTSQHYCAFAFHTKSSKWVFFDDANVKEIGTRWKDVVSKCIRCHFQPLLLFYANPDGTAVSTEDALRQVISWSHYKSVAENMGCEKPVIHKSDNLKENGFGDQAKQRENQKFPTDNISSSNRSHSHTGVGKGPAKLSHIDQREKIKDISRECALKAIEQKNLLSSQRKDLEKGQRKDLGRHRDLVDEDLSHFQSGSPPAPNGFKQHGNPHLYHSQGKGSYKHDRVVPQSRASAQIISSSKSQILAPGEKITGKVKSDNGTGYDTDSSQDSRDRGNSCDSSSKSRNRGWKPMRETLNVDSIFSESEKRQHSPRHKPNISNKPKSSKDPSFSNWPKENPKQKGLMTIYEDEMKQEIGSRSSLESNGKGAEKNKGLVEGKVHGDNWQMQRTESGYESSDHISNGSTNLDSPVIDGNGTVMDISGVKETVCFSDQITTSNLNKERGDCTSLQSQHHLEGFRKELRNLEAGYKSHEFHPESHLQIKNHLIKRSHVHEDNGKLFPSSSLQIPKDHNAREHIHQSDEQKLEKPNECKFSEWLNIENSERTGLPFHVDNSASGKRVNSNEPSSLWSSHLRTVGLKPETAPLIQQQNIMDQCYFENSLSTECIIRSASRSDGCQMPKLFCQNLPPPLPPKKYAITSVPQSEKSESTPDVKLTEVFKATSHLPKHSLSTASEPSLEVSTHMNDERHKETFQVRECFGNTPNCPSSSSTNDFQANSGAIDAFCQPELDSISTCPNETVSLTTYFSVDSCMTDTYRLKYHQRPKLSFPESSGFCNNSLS
UniProt Q7Z3Z4: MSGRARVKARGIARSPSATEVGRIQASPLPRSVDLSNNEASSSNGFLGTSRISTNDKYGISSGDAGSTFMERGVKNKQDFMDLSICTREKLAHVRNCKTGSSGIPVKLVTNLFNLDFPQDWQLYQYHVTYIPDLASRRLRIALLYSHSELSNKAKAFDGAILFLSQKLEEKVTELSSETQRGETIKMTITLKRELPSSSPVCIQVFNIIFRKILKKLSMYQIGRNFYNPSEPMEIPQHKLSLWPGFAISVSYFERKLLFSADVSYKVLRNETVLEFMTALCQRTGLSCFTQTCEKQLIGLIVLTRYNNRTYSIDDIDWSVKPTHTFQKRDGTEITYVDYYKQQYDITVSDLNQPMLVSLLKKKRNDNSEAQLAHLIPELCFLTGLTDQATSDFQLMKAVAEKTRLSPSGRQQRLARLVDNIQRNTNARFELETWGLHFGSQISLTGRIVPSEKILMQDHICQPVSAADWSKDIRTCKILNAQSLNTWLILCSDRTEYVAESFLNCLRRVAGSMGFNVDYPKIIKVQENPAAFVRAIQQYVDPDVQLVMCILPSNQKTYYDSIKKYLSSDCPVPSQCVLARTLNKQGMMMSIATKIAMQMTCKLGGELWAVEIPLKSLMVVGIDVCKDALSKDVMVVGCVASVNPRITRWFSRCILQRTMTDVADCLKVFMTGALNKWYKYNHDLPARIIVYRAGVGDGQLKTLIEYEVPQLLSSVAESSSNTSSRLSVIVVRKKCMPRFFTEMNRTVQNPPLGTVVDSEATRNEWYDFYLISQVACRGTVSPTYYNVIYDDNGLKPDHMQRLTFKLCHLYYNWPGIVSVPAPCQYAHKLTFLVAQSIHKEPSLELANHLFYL
UniProt Q6ZV73: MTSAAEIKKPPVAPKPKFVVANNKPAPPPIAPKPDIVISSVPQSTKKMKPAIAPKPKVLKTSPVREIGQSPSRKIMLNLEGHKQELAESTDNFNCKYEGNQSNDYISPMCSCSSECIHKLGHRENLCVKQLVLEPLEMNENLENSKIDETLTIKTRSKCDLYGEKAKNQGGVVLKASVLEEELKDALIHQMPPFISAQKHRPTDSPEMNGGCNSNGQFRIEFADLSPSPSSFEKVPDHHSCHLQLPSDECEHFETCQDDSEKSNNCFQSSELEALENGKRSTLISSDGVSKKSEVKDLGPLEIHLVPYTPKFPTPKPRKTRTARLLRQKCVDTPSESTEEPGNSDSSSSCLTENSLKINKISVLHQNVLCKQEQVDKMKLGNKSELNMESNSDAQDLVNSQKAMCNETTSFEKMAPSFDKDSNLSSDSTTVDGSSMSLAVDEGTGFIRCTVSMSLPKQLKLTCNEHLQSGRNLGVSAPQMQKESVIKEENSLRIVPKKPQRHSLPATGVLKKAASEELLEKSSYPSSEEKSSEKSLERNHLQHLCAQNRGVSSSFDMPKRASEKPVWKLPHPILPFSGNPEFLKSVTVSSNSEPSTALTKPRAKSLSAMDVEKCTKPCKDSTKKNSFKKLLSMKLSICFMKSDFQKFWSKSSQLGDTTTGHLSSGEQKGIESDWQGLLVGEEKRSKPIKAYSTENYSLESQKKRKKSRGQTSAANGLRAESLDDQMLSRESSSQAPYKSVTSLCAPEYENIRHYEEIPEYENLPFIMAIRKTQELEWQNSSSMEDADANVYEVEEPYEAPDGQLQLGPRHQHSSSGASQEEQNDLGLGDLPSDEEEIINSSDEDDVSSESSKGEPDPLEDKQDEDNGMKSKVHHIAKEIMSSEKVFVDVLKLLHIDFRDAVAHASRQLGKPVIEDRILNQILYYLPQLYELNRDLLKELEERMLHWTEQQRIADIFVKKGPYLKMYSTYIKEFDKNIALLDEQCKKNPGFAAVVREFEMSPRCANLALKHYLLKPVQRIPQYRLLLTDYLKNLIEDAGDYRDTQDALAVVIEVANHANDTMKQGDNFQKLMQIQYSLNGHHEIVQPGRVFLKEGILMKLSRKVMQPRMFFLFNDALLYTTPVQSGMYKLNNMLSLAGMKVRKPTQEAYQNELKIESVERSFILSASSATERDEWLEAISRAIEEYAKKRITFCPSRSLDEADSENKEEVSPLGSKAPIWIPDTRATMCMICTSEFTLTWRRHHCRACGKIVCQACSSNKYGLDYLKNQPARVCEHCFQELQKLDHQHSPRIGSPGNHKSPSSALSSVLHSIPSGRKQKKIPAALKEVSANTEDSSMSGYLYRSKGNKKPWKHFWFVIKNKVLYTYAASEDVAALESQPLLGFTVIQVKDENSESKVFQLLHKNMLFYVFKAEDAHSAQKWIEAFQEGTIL
UniProt Q6ZTB9: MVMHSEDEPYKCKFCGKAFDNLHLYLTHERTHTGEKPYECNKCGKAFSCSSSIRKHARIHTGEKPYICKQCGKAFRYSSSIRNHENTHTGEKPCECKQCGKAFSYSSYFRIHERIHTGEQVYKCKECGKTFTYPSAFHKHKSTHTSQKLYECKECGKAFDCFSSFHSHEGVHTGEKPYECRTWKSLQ
UniProt Q6ZU80: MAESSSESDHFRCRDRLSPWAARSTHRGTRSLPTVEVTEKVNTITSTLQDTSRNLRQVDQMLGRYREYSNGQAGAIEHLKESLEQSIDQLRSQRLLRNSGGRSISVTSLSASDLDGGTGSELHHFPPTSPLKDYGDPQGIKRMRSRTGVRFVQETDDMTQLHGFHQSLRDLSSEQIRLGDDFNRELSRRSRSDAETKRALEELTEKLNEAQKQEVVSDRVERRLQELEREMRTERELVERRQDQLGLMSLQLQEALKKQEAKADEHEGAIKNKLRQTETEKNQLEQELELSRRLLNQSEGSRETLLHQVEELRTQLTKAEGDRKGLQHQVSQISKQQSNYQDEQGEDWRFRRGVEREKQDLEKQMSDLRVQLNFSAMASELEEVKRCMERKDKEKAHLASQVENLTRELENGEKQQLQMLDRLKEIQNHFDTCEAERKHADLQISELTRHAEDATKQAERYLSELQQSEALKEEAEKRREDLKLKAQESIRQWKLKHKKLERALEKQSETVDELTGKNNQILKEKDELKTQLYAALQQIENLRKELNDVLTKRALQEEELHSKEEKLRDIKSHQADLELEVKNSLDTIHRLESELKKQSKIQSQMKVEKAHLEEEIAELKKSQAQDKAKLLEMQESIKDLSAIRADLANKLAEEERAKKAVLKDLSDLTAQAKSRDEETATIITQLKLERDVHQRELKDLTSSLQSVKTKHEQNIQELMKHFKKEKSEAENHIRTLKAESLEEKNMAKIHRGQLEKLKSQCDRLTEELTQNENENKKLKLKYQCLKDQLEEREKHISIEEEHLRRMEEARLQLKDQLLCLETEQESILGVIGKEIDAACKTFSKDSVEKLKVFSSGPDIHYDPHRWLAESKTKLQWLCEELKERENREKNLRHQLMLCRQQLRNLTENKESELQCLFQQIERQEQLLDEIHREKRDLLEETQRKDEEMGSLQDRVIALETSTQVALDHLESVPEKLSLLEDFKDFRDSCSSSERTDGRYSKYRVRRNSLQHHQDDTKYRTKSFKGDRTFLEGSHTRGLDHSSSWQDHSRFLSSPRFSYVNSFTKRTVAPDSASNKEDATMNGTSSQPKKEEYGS
UniProt Q7RTN6: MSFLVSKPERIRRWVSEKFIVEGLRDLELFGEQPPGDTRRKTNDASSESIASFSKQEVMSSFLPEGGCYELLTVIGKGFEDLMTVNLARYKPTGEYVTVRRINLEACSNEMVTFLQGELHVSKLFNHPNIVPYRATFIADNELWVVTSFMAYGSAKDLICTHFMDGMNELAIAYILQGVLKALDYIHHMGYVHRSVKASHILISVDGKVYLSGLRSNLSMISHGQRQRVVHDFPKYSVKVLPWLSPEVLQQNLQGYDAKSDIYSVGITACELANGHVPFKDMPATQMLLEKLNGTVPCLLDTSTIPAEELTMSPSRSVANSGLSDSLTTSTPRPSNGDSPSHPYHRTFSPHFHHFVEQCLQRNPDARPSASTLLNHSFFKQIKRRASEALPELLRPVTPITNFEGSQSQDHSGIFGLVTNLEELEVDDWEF
UniProt Q86TJ2: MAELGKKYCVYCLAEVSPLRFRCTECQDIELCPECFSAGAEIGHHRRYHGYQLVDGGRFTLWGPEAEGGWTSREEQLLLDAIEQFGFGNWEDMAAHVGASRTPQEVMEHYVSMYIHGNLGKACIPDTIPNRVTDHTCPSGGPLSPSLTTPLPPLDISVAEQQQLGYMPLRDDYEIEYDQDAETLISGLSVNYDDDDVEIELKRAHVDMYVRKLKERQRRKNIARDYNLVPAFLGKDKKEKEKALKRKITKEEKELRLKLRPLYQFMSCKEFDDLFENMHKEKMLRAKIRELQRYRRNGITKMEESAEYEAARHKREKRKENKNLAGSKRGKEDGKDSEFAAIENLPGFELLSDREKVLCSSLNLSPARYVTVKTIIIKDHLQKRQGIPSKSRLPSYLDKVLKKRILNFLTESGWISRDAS
UniProt Q7Z4V5: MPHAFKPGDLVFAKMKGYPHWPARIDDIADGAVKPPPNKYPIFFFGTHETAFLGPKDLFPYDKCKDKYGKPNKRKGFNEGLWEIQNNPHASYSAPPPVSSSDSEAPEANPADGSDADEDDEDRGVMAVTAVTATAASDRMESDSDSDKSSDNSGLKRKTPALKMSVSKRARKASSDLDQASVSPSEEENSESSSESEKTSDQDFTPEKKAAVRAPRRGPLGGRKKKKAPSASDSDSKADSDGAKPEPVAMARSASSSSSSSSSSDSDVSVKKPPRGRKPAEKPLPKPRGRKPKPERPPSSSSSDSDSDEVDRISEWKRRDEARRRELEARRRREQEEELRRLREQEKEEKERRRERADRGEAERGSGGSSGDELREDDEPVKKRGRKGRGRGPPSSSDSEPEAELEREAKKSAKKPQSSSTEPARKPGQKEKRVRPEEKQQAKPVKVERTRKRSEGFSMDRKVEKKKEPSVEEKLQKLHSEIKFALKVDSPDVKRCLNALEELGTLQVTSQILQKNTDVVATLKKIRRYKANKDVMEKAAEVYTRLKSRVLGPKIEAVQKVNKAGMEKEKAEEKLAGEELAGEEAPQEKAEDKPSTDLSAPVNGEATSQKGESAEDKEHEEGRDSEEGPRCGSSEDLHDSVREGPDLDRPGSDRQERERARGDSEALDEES
UniProt Q7L3S4: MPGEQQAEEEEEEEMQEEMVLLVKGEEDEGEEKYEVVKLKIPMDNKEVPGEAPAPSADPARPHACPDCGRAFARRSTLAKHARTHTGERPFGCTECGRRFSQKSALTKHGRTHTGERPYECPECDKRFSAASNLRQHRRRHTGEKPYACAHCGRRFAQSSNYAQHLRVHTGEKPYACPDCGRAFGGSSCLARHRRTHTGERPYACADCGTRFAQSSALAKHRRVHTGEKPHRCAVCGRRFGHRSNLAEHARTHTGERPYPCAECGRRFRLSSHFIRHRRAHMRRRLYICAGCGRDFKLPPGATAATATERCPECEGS

The targets below were run with Cc1nc(Nc2ncc(C(=O)Nc3c(C)cccc3Cl)s2)cc(N2CCN(CCO)CC2)n1 [dasatinib] (assay: log2 fold change of tryptic peptide abundance, ligand vs vehicle (limited proteolysis) (log2 ratio); higher = more trypsin-susceptible (destabilized)). Conditions: ligand concentration: 5 uM; sample: K562 cleared lysate.

Row | Target | log2 fold change
1 | SRCAP (peptide sequence: GVDEAPSSTLK, peptide start residue: 2876) (UniProt Q6ZRS2) | 0.226
2 | UniProt Q70EK8 (peptide sequence: EKALPSDNIR, peptide start residue: 90) | -0.146
3 | DPP8 (peptide sequence: LEPFYVER, peptide start residue: 48) (UniProt Q6V1X1) | 0.0943
4 | STXBP4 (peptide sequence: TFEASTEK, peptide start residue: 422) (UniProt Q6ZWJ1) | 0.623
5 | PIWIL4 (peptide sequence: IQASPLPR, peptide start residue: 24) (UniProt Q7Z3Z4) | -0.272
6 | RSRC2 (peptide sequence: MLWQGKK, peptide start residue: 337) (UniProt Q7L4I2) | -0.343
7 | TRIM67 (peptide sequence: EFLVQLK, peptide start residue: 367) (UniProt Q6ZTA4) | 0.159
8 | FGD6 (peptide sequence: ITFCPSR, peptide start residue: 1190) (UniProt Q6ZV73) | -0.461
9 | METTL3 (peptide sequence: FAAQELIEVKR, peptide start residue: 123) (UniProt Q86U44) | -0.196
10 | RRM2B (peptide sequence: SNEEPLLRK, peptide start residue: 29) (UniProt Q7LG56) | 0.274
11 | UniProt Q6ZTB9 (peptide sequence: AFSCSSSIR, peptide start residue: 224) | 0.0271
12 | CEP128 (peptide sequence: LRQTETEK, peptide start residue: 274) (UniProt Q6ZU80) | 0.213
13 | STRADA (peptide sequence: SFLVSKPER, peptide start residue: 2) (UniProt Q7RTN6) | -0.242
14 | TADA2B (peptide sequence: RYHGYQLVDGGR, peptide start residue: 47) (UniProt Q86TJ2) | -0.256
15 | DDX46 (peptide sequence: DAGNFDQNK, peptide start residue: 147) (UniProt Q7L014) | 0.357
16 | UniProt Q7Z4V5 (peptide sequence: MKGYPHWPAR, peptide start residue: 15) | 0.24
17 | YRDC (peptide sequence: LLRLPGSGAVQAASPER, peptide start residue: 47) (UniProt Q86U90) | -0.0703
18 | ZNF562 (peptide sequence: SSTLTQHR, peptide start residue: 384) (UniProt Q6V9R5) | 0.629
19 | ATG4D (peptide sequence: FLTAWNNVK, peptide start residue: 69) (UniProt Q86TL0) | -0.287
20 | VPS13B (peptide sequence: IGVLSLESLHASTR, peptide start residue: 1913) (UniProt Q7Z7G8) | -0.255
21 | CEFIP (peptide sequence: DLTPSPSSASNR, peptide start residue: 840) (UniProt Q711Q0) | -0.313
22 | UniProt Q71F23 (peptide sequence: RSSDTSGNEASEIESVK, peptide start residue: 106) | 0.722
23 | UniProt Q6ZSZ6 (peptide sequence: KEPEKEK, peptide start residue: 500) | 0.0785
24 | CBLL1 (peptide sequence: HVFCYDCAILHEK, peptide start residue: 127) (UniProt Q75N03) | 0.412
25 | ATF7IP (peptide sequence: QVNPQNSVTVR, peptide start residue: 1088) (UniProt Q6VMQ6) | -0.573
26 | UniProt Q7Z392 (peptide sequence: FIPTSIFVKPQGR, peptide start residue: 1111) | -0.0393
27 | ZNF771 (peptide sequence: THTGERPYECPECDKR, peptide start residue: 112) (UniProt Q7L3S4) | 0.49

As entered above:
Value for ATG4D (peptide sequence: FLTAWNNVK, peptide start residue: 69) (UniProt Q86TL0) under log2 fold change: -0.287
Value for TADA2B (peptide sequence: RYHGYQLVDGGR, peptide start residue: 47) (UniProt Q86TJ2) under log2 fold change: -0.256
